The campaign covered roughly 300,000 compounds. About 3,700 (1.2%) were called active. Inconclusive results, whose numbers are uncertain, are shown with a selection of clear calls. Calls follow the shape of the full dose curve; tested in HEK293 cells. A potency beside an inconclusive call is a rough fit, not a confirmed value.
Assay: qHTS for Inhibitors of binding or entry into cells for Lassa Virus; also: nearly all actives have a fitted effect of over 50% in size
Conditions: Lassa virus pseudotype entry inhibition, cell reporter; activity change, negative = inhibition: at 37.9 µM (top of the series) unless noted
% is scaled to controls: 0 for no effect and ±100 for the full control effect; potency is read from the fitted curve at half-maximal effect.

Compound	activity change, negative = inhibition	Potency
CCCCN(CC)Cc1ccc(CNC(=O)Nc2ccc(F)cc2)o1	inactive: 6.14%	
O=C(COC(=O)c1cncc(Br)c1)Nc1nc(-c2ccc(F)cc2)cs1	inactive: -2.04%	
Cc1ccc2nc(NC(=O)c3ccc4c(c3)OCO4)sc2c1	inactive: -20.9%	
COc1ccc(CCNS(=O)(=O)c2ccc(N3CCCCS3(=O)=O)cc2)cc1		inconclusive: 35.5 µM [inhibitor, single point]
COc1ccc(C2Nc3ccccc3C(=O)N2Cc2ccccc2)cc1CN1CCOCC1 (stereo unspecified)		inconclusive: 2 µM [inhibitor, partial curve, poor fit]
NNc1nc2ccc(Cl)cc2s1		inconclusive: 6.31 µM [activator, single point]
NC(N)=[N+]1CCc2ccccc2C1		inconclusive: 0.291 µM [activator, full curve, poor fit]
N#CCCn1cc(C(=O)NCc2ccccc2)c(-c2ccc3c(c2)OCCO3)n1		inconclusive: 35.5 µM [inhibitor, single point]
CN(C)CCNC(=O)/C(=C/c1ccc(-c2cccc([N+](=O)[O-])c2)o1)NC(=O)c1ccccc1		inconclusive: 29.1 µM [inhibitor, single point]
COc1ccc(CO[C@](C)(CCO[Si](C)(C)C(C)(C)C)C[C@H](O[Si](C)(C)C(C)(C)C)[C@H](C)CC[C@@H]2C[C@@H]3C=CCOP(=O)(O2)O3)cc1		inconclusive: 35.3 µM [inhibitor, partial curve, poor fit]
O=C(CN1C(=O)c2ccccc2S1(=O)=O)N1CCc2ccccc2C1		inconclusive: 5.01 µM [inhibitor, partial curve, poor fit]
COc1cc(OC)c(NC(=O)N2CCc3cc(S(=O)(=O)N4CCC(C)CC4)ccc32)cc1Cl		inconclusive: 3.16 µM [inhibitor, partial curve, poor fit]
O=c1oc2ccc3ccccc3c2cc1-c1nnc(Nc2cccc(C(F)(F)F)c2)s1	inactive: 4.03% [at 46.1 µM]	
COc1ccc(CNC(=O)C(=O)NCC2OCCN2S(=O)(=O)c2ccc(OC)cc2)cc1 (stereo unspecified)		inconclusive: 17.8 µM [inhibitor, single point]
COc1cc(C(=O)c2ccc3c(c2)OCO3)cc(OC)c1OC		inconclusive: 5.62 µM [inhibitor, partial curve, poor fit]
NNc1nc(-c2ccccc2)nc2sc3c(c12)CCCC3		inconclusive: 22.4 µM [inhibitor, single point]
N#C/C(=C\c1ccc(N2CCOCC2)o1)C(=O)NCCc1ccccc1		inconclusive: 9.2 µM [inhibitor, partial curve, poor fit]
Cc1cccc(CSc2nnc(CCCCCN)o2)c1		inconclusive: 17.8 µM [inhibitor, single point]
Cc1ccc(C)c(NC(=O)c2nnn(Cc3ccc(F)cc3Cl)c2N)c1	inactive: 12.3% [at 46.1 µM]	
CC(C)n1ncc2c(C(=O)NCCc3ccc(S(N)(=O)=O)cc3)cc(C3CC3)nc21		inconclusive: 35.5 µM [inhibitor, single point]
CCOC(=O)N1CCN(c2nc(-c3ccc(F)cc3)cs2)CC1		inconclusive: 29.1 µM [inhibitor, single point]
Cn1nc(-c2ccccc2F)c2cc(C(=O)NCc3cccc(Cl)c3)sc21		inconclusive: 10 µM [inhibitor, partial curve, poor fit]

Reprinted at random: four entries already listed
Compound	activity change, negative = inhibition	Potency
O=C(COC(=O)c1cncc(Br)c1)Nc1nc(-c2ccc(F)cc2)cs1	inactive: -2.04%	
NNc1nc(-c2ccccc2)nc2sc3c(c12)CCCC3		inconclusive: 22.4 µM [inhibitor, single point]
COc1ccc(CCNS(=O)(=O)c2ccc(N3CCCCS3(=O)=O)cc2)cc1		inconclusive: 35.5 µM [inhibitor, single point]
CC(C)n1ncc2c(C(=O)NCCc3ccc(S(N)(=O)=O)cc3)cc(C3CC3)nc21		inconclusive: 35.5 µM [inhibitor, single point]

Additional structures

Compound	activity change, negative = inhibition	Potency
Oc1ccc(CNc2ccccc2)c2cccnc12		inconclusive: 5.17 µM [inhibitor, full curve, poor fit]
O=C(Nc1ccc(F)cc1)Nc1nnc(-c2ccccc2)o1	inactive: 2.63% [at 46.1 µM]	
C=CCn1c(O)c(C(C)=NC2CC2)c(=O)[nH]c1=O		inconclusive: 0.708 µM [inhibitor, partial curve, poor fit]
COc1cc(CNc2ccc(N3CCCC3)cc2)cc(Cl)c1OC		inconclusive: 35.5 µM [inhibitor, single point]
CCc1c(C)sc2c1CCN(C(=O)Nc1cc(C)ccc1C)C2c1ccc(OC)cc1 (stereo unspecified)	inactive: 1.04% [at 46.1 µM]	
COc1ccc(N(C(=O)c2ccco2)C(C(=O)NC2CCCC2)c2ccc(C)cc2)c(OC)c1 (stereo unspecified)		inconclusive: 4.47 µM [inhibitor, partial curve, poor fit]
O=C(NNC(=S)Nc1ccc(F)cc1)C1CC1c1ccc(Cl)cc1 (stereo unspecified)		active: 0.411 µM
Cc1ccn2c(=O)nc(SCC(=O)c3ccccc3)nc2c1		inconclusive: 4.47 µM [activator, single point]
CCCCNC(=S)Nc1cccc(S(=O)(=O)NC2=NCCC2)c1		inconclusive: 6.31 µM [inhibitor, partial curve, poor fit]
CCNS(=O)(=O)c1ccc(OCCNS(C)(=O)=O)cc1		inconclusive: 1.64 µM [activator, full curve, poor fit]
COc1cccc(/C=C/C2=CC(C)(C)NC(=S)N2)c1		inconclusive: 4.47 µM [inhibitor, single point]
CCOC(=O)C1CCN(C(=O)CN(C)S(=O)(=O)c2ccc3c(c2)c(=O)n(C)c(=O)n3C)CC1	inactive: 7.61% [at 46.1 µM]	
COc1ccc(/C=C/C(=O)Nc2ccc3nc4c(c(Nc5ccc(OC)c(OC)c5)c3c2)CCCC4)cc1		inconclusive: 35.5 µM [inhibitor, single point]
COc1ccc(-c2noc(CSc3nnc(Cc4ccccc4)n3-c3cccc(C)c3)n2)cc1		inconclusive: 8.91 µM [inhibitor, partial curve, poor fit]
Cc1cc(C)n(CC(C)O)c(=O)c1C#N (stereo unspecified)		inconclusive: 29.1 µM [activator, partial curve, poor fit]
COc1ccc(Nc2nc(NCc3ccco3)nc(N3CCOCC3)n2)cc1	inactive: -0.858%	
CCOc1cc(CNCCSc2nnnn2C)cc(Br)c1OCc1ccccc1F	inactive: -20.6%	
CCN=C1S/C(=C\c2ccc(Sc3ccc(Cl)cc3)o2)C(=O)N1CC	inactive: -16.5%	
CCN(CC)c1ccc2cc(C(C)=O)c(=O)oc2c1		inconclusive: 5.62 µM [activator, single point]
CCOc1ccc2c(c1)[N+](C)(C)C(C)(C)C=C2C		inconclusive: 11.2 µM [inhibitor, partial curve, poor fit]
Cc1cc2ncn(/N=C/c3cccnc3)c2cc1C	inactive: -23.1%	
COc1ccc(CCNC(=O)CCS(=O)(=O)c2cc3c(cc2Cl)NC(=O)CO3)cc1OC	inactive: 22.9% [at 46.1 µM]	

Compound	activity change, negative = inhibition	Potency
CC(=O)c1c(C)[nH]c(C(=O)COC(=O)c2cccc(S(=O)(=O)N(C)c3ccccc3)c2)c1C		inconclusive: 25.1 µM [inhibitor, single point]
CCN(CC)CCn1c(=N)n(CC(O)c2ccco2)c2ccccc21 (stereo unspecified)		inconclusive: 16.4 µM [inhibitor, single point]
Cc1ccc(CN(C(=O)COc2ccc([N+](=O)[O-])cc2)c2ccccn2)o1		inconclusive: 14.1 µM [activator, single point]
Cc1ccc(-c2cc(-c3ccccc3[N+](=O)[O-])[nH]n2)c(O)c1	inactive: -7.24%	
O=C(C(=Cc1ccc(F)cc1)c1ccccc1)c1ccc(O)cc1		inconclusive: 11.2 µM [inhibitor, partial curve, poor fit]
CC(=O)c1ccc(NC(=O)CSc2ccc3nnc(CCNS(=O)(=O)c4ccc(C)cc4)n3n2)cc1	inactive: 12.8% [at 46.1 µM]	
COc1cc(C2NC(=O)NC(C)=C2C(=O)OC2CCCCC2)cc(Cl)c1O (stereo unspecified)		inconclusive: 11.2 µM [inhibitor, single point]
O=C(c1ccc2c(=O)n(Cc3ccccc3)c(=S)[nH]c2c1)N1CCCC1	inactive: -6.92% [at 46.1 µM]	
O=C(CSc1nc2ccccc2[nH]1)NCc1ccc(F)cc1		inconclusive: 3.98 µM [activator, full curve, poor fit]
COc1cccc(Oc2cn[nH]c2-c2ccc(OC)cc2O)c1		inconclusive: 6.51 µM [inhibitor, partial curve, poor fit]
CCC(O)C1CCN(Cc2cn(-c3ccc(OC)cc3)nc2-c2cccc(F)c2)CC1 (stereo unspecified)		inconclusive: 35.5 µM [inhibitor, single point]
CCOc1ccccc1CNC(=O)CSc1nnc(C)c2c(C)n(-c3ccccc3)nc12		inconclusive: 11.2 µM [inhibitor, partial curve, poor fit]
CS(=O)(=O)N(CC(=O)N1CCCCC1)c1cccc(F)c1	inactive: 6.54% [at 46.1 µM]	
CCCc1c(OCCCOc2ccc(OCC(=O)O)cc2)ccc(C(C)=O)c1O		inconclusive: 5.8 µM [inhibitor, single point]
Cc1ncsc1CCOC(=O)C1C2CC3CC(C2)CC1C3 (stereo unspecified)		inconclusive: 35.5 µM [inhibitor, single point]
O=C(CS(=O)CC(=O)NC12CC3CC(CC(C3)C1)C2)Nc1ccc(F)cc1 (stereo unspecified)		inconclusive: 22.4 µM [inhibitor, partial curve, poor fit]
CC(C)CN(C(=O)CN1CCN(c2ccc(O)cc2)CC1)c1c(N)n(CC(C)C)c(=O)[nH]c1=O	inactive: 14.5%	
COc1ccc(NC(=O)CN(C)S(=O)(=O)c2ccccc2)cc1OC		inconclusive: 0.0052 µM [activator, full curve, poor fit]
COc1ccc(CNCCC(c2ccc(OC(C)C)cc2)C(C)C)cc1OC (stereo unspecified)		active: 20.6 µM
CCOCCCNC(=O)c1ccc2c(=O)n(CCc3ccc(OC)c(OC)c3)c(=O)[nH]c2c1	inactive: -25.6% [at 46.1 µM]	
CCC(C(=O)OCC(=O)Nc1c(Cl)cccc1Cl)c1ccccc1 (stereo unspecified)		inconclusive: 25.9 µM [inhibitor, partial curve, poor fit]
COC(=O)c1sc(S(=O)(=O)Nc2ccc(C)c(C)c2)c(C(=O)OC)c1C		inconclusive: 18.4 µM [activator, partial curve, poor fit]
